From patent US20210009657A1 (THEACHON, published 2021)
No constants are given. Whether binding was seen depends on the method and setting. Some results given as binding are weak or reduced against the parent protein; the word gives no strength. Sequences can lack the tags named with a protein.

Amino acid sequences for entries named in this document (tags omitted). Residues count along the entry.
UniProt P16112, residues 20-675: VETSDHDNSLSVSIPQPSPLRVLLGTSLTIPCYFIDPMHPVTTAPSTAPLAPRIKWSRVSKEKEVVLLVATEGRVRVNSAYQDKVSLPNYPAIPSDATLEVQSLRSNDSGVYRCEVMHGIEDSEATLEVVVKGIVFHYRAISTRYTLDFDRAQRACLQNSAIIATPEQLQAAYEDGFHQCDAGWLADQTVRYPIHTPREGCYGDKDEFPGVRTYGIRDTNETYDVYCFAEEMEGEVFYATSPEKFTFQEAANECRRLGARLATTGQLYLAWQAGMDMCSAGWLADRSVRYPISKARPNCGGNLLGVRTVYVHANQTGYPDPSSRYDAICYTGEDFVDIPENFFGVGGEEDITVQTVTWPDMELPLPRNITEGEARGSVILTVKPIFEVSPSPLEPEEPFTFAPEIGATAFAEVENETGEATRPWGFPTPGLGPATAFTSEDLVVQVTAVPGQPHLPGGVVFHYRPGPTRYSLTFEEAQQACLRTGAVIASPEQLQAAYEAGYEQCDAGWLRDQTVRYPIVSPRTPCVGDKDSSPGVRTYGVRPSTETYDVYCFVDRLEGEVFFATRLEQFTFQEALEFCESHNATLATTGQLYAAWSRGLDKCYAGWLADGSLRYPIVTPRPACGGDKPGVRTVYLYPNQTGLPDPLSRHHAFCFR

Biological target: Aggrecan (R&D systems #1220-PG-025) (UniProt P16112)
Assay: ELISA, aggrecan coated on plate, detection with anti-FGFR3 antibody

binding: binds
B1: FLAG-sFGFR3_Del4-LK1-LK2 (other)
chain: DYKDDDDKLVDQIPAMGAPACALALCVAVAIVAGASSESLGTEQRVVGRAAEVPGPEPGQQEQLVFGSGDAVELSCPPPGGGPMGPTVWVKDGTGLVPSERVLVGPQRLQVLNASHEDSGAYSCRQRLTQRVLCHFSVRVTDAPSSGDDEDGEDEAEDTGVDTGAPYWTRPERMDKKLLAVPAANTVRFRCPAAGNPTPSISWLKNGREFRGEHRIGGIKLRHQQWSLVMESVVPSDRGNYTCVVENKFGSIRQTYTLDVLERSPHRPILQAGLPANQTAVLGSDVEFHCKVYSDAQPHIQWLKHVEVNGSKVGPDGTPYVTVLKVSLESNASMSSNTSGSGSGSGSGSGSGSVVFPYFPRLGRYNLNFHEAQQACLDQDAVIASFDQLYDAWRGGLDWCNAGWLSDGSVQYPITKPREPCGGQNTVPGVRNYGFWDKDKSRYDVFCFTSNFNGRFYYLIHPTKLTYDEAVQACLNDGAQIAKVGQIFAAWKILGYDRCDAGWLADGSVRYPISRPRRRCSPTEAAVRFVGFPDKKHKLYGVYCFRAYN
notes: Fusion of a soluble FGFR3 fragment with the LK1 and LK2 link domains of human HPLN1; Made in HEK 293 cells; also called FP; fusion protein
